Results published in article PMC12891897, “Blocking TRIM47-mediated HNF4α degradation suppresses hepatocellular carcinoma progression” (Acta Pharmaceutica Sinica. B, 2025).
Results are given in words; binding and its absence hold for the method and conditions named. In cells and extracts the contact can be indirect. Here binding means that the protein was enriched with, or labelled near, the bait; the list need not be complete.

By UniProt entry, the sequences of proteins in these tests, tags left out.
UniProt Q96LD4: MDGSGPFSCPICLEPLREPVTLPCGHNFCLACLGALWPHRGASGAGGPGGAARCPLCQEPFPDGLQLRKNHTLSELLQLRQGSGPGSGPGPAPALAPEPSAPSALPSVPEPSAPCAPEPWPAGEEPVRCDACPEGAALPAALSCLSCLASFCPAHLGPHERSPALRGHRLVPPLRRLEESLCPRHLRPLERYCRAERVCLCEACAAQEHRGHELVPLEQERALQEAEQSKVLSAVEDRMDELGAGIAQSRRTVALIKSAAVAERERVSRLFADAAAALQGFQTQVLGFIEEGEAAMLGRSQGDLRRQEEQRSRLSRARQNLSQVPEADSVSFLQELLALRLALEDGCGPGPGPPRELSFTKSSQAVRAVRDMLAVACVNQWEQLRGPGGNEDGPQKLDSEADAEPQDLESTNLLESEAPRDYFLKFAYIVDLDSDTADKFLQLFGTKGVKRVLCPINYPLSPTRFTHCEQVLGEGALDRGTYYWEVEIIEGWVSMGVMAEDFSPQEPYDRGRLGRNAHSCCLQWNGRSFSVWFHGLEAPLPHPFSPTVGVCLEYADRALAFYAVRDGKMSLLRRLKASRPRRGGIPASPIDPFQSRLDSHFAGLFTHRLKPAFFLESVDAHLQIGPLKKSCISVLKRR
UniProt P19474: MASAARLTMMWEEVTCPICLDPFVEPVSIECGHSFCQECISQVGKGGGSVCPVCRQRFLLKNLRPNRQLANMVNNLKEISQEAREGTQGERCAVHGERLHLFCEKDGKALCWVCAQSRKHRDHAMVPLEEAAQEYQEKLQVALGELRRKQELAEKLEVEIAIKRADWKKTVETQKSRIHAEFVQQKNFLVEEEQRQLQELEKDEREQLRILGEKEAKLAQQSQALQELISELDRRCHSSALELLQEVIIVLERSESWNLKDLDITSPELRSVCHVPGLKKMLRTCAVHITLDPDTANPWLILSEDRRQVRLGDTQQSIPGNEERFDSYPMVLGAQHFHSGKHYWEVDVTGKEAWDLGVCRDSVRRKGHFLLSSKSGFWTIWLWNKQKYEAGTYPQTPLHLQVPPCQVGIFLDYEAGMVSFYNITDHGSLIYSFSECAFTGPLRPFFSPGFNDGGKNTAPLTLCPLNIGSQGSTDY

B1: HNF4α, endogenous in MHCC-L cells (protein, UniProt P41235-1 1-474)
chain: MRLSKTLVDMDMADYSAALDPAYTTLEFENVQVLTMGNDTSPSEGTNLNAPNSLGVSALCAICGDRATGKHYGASSCDGCKGFFRRSVRKNHMYSCRFSRQCVVDKDKRNQCRYCRLKKCFRAGMKKEAVQNERDRISTRRSSYEDSSLPSINALLQAEVLSRQITSPVSGINGDIRAKKIASIADVCESMKEQLLVLVEWAKYIPAFCELPLDDQVALLRAHAGEHLLLGATKRSMVFKDVLLLGNDYIVPRHCPELAEMSRVSIRILDELVLPFQELQIDDNEYAYLKAIIFFDPDAKGLSDPGKIKRLRSQVQVSLEDYINDRQYDSRGRFGELLLLLPTLQSITWQMIEQIQFIKLFGMAKIDNLLQEMLLGGSPSDAPHAHHPLHPHLMQEHMGTNVIVANTMPTHLSNGQMCEWPRPRGQAATPETPQPSPPGGSGSEPYKLLPGAVATIVKPLSAIPQPTITKQEVI
B2: PPM1A (protein, UniProt P35813 1-382)
chain: MGAFLDKPKMEKHNAQGQGNGLRYGLSSMQGWRVEMEDAHTAVIGLPSGLESWSFFAVYDGHAGSQVAKYCCEHLLDHITNNQDFKGSAGAPSVENVKNGIRTGFLEIDEHMRVMSEKKHGADRSGSTAVGVLISPQHTYFINCGDSRGLLCRNRKVHFFTQDHKPSNPLEKERIQNAGGSVMIQRVNGSLAVSRALGDFDYKCVHGKGPTEQLVSPEPEVHDIERSEEDDQFIILACDGIWDVMGNEELCDFVRSRLEVTDDLEKVCNEVVDTCLYKGSRDNMSVILICFPNAPKVSPEAVKKEAELDKYLECRVEEIIKKQGEGVPDLVHVMRTLASENIPSLPPGGELASKRNVIEAVYNRLNPYKNDDTDSTSTDDMW

Target: Flag-tagged TRIM47 (tripartite motif 47), full length (amino acids 1–638) (human) (UniProt Q96LD4)
Test: affinity purification with mass spectrometry; MHCC-L cells transfected with Flag-TRIM47 or Flag-vector, MG132 for 6 h, lysed in IP buffer, anti-Flag beads at 4 °C overnight, washed (20 mmol/L Tris-HCl pH 8.0, 150 mmol/L NaCl, 0.5% NP40, 0.5% Triton X-100, 10% glycerol), trypsin digest, Q Exactive HF-X

**Q.** TRIM21 (from UniProt P19474 1-475) was tested. Which binding did it give?
**A.** binds

**Q.** With B1 as the molecule, how does the binding read?
**A.** binds

**Q.** For B2, which binding is on record?
**A.** binds
